Source: US6998124 (GlaxoSmithKline, dated 2006)
No constants are given. Whether binding was seen depends on the method and setting. Some results given as binding are weak or reduced against the parent protein; the word gives no strength.

What was measured:
[1] = biological target: T1, soluble dimeric erythropoietin receptor (EpoRFc) (human) (UniProt P19235); assay: immunoassay, EpoR-Fc coated at 0.5 ug/ml, Eu3+-labelled anti-mouse detection, with or without 3 ug/ml soluble EpoR
T1 sequence (looked up): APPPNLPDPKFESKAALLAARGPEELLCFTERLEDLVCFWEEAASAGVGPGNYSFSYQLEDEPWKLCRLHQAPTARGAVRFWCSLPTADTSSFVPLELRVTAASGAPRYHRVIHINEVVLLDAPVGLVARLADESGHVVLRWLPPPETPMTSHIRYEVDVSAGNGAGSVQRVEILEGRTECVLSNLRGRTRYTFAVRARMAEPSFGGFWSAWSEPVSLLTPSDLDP

[2] = biological target: T1, soluble dimeric erythropoietin receptor (EpoRFc) (human); assay: BIAcore, EpoRFc captured on goat anti-human IgG Fc; Epo as competitor
[3] = biological target: T2, soluble monomeric erythropoietin receptor (EpoR) (human) (UniProt P19235); assay: immunoassay, soluble EpoR (3 ug/ml) displaces the mAb from coated EpoR-Fc
T2 sequence (looked up): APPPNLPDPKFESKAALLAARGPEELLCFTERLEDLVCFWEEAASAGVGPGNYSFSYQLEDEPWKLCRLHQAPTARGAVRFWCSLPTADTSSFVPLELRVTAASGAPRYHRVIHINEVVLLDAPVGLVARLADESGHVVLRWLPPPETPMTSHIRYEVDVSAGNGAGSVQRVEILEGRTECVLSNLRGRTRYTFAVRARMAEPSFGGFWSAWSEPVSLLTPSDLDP

binding [1]: binds | binding [2]: binds | binding [3]: binds
B1: murine monoclonal antibody 3G9 (antibody, V domains shown)
VH: QVQLQQPGAELVKSGASVKLSCKASGSTFTSYWMHWVKQRPGRGLEWIGRIDPNSGGTKDNEKFKSKATLTVDKPSSTAYMQLSSLTSEDSAVYYCARETYYDSSFAYWGQGTLVTVSA
VL: DIVMTQSQKFMSTSVGDRVSVTCKASQNVGTNVAWYQQKPGQSPKALIYSASYRYSGVPDRFTGSGSGTDFTLTISNVQSEDLAEYFCQQYNSYPLTFGAGTKLELKR
modifications: amino terminus of the heavy chain blocked with pyroglutamic acid
notes: Mouse hybridoma antibody; also called 3G9 mAb; Mab 3G9
